In PubChem BioAssay AID328 (DTP/NCI, 2004):
The list is a part of this screen's results and no random one: it is rich in T/C values a quarter to a half above the control, in often repeated tests (any T/C) and in doses without a T/C. Further doses and runs are listed elsewhere. T/C is the treated group as % of the vehicle group. Some doses have a count of surviving animals in place of a T/C: the source holds a T/C of zero for them, seemingly a mark for toxic or unscored doses. Some doses without a T/C left all or most animals alive at the check, yet need not have been tolerated: survival well below the control is almost never listed, so the zero probably covers shortened survival too. Survivors were counted at the toxicity check, usually on the fifth day, unless a day is given; later deaths do not show. Schedules are NCI's codes, taken here to give the interval after Q, in days (D) or hours (H), and the number of doses after X. Some entries hold several experiments; their values stand side by side, smallest first. For survival time, the PubChem record calls one and a half times the control and up active, and a quarter to a half above the control has no call in these data; cut-offs in other NCI protocols can differ. Some T/C values carry the count of animals alive at the toxicity check (mostly the fifth day); where none is given, no animal had died by that day.

System: BDF1 mice, P388 leukemia ip, median survival T/C
Experiment: NCI In Vivo Anticancer Drug Screen. Data for tumor model P388 Leukemia (intraperitoneal) in B6D2F1 (BDF1) mice
Details: T/C endpoint: median survival time, higher T/C = longer survival
Experimental: The antitumor activity of compounds was measured in mice bearing transplantable tumors. Survival or tumor size were measured and the results are expressed as the measurement made in the treated group (T) divided by the measurement made in the vehicle treated control group (C). The tumor model used in this assay is P388 Leukemia (intraperitoneal) in B6D2F1 (BDF1) mice

[1] = dose: 200.0 mg/kg/injection, schedule: Q01DX009 (ip), vehicle: saline with Tween-80
[2] = dose: 400.0 mg/kg/injection, schedule: Q01DX009 (ip), vehicle: saline with Tween-80
[3] = dose: 100.0 mg/kg/injection, schedule: Q01DX009 (ip), vehicle: saline with Tween-80
[4] = dose: 400.0 mg/kg/injection, schedule: Q04DX003 (ip), vehicle: saline with Tween-80

O=C(O)CC[S-].[Ag+] was tested. Which survivor count [1] did it give?
Its survivor count is 6 of 6.

And the survivor count [2]?
The survivor count was 6 of 6.

With C1O[C@@H]1[C@H]1CO1 as the compound, how does the T/C (dose: 16.5 mg/kg/injection, schedule: Q01DX009 (ip), vehicle: saline) read?
The T/C was 136 % of control.

What about the survivor count (dose: 100.0 mg/kg/injection, schedule: Q04DX003 (ip), vehicle: saline) of the same compound?
The survivor count was 0 of 6.

What about the survivor count (dose: 200.0 mg/kg/injection, schedule: Q04DX003 (ip), vehicle: saline) of the same compound?
Its survivor count is 0 of 6.

What about the survivor count (dose: 400.0 mg/kg/injection, schedule: Q04DX003 (ip), vehicle: saline) of the same compound?
Its survivor count is 0 of 6.

Which T/C (dose: 4.0 mg/kg/injection, schedule: Q01DX010 (ip), vehicle: water) does the source give for COc1cc2c3c(c4ccc(OC)c(OC)c4c2cc1OC)CN1CCC[C@@H]1C3 here?
Its T/C is 140 % of control.

And the T/C (dose: 5.0 mg/kg/injection, schedule: Q01DX010 (ip), vehicle: saline)?
Its T/C is 127 % of control.

And the survivor count (dose: 10.0 mg/kg/injection, schedule: Q01DX010 (ip), vehicle: water)?
Its survivor count is 4 of 6.

And the survivor count (dose: 12.5 mg/kg/injection, schedule: Q01DX010 (ip), vehicle: water)?
The survivor count was 6 of 6.

CCN(CC)C(=O)c1ccc(C(Cl)(Cl)Cl)cc1 was tested. Which T/C [1] did it give?
The T/C was 136 % of control.

And the survivor count [1]?
The survivor count was 3 of 3.

What about the T/C (dose: 400.0 mg/kg/injection, schedule: Q04DX003 (ip), vehicle: Klucel (hydroxypropylcellulose) (HPC)) of the same compound?
Its T/C is 125 % of control.

And the T/C (dose: 400.0 mg/kg/injection, schedule: Q04DX003 (ip), vehicle: saline sonified)?
Its T/C is 127 % of control.

With O=S(=O)(c1ccccc1)N1CN2CCN(C2)C1 as the compound, how does the T/C [1] read?
Its T/C is 136 % of control.

What about the T/C [2] of the same compound?
Its T/C is 142 % of control.

For CC(Oc1ccccc1)C(=O)N=c1scc(-c2ccc(Br)cc2)n1-c1cccc2ccccc12 (stereo unspecified), which T/C (dose: 25.0 mg/kg/injection, schedule: Q01DX009 (ip), vehicle: gum acacia) is on record?
The T/C was 132 % of control.

With CNc1cccnc1/C=N/NC(N)=S as the compound, how does the T/C [1] read?
The T/C was 133 % of control.

And the survivor count [2]?
The survivor count was 4 of 6.

Which T/C (dose: 50.0 mg/kg/injection, schedule: Q01DX009 (ip), vehicle: water) does the source give for Clc1nc2nc(Cl)n(Cl)c2nc1Cl here?
The T/C was 134 % of control.

And the T/C [3]?
Its T/C is 127 % of control [5 of 6 alive].

What about the survivor count [3] of the same compound?
The survivor count was 5 of 6.

And the survivor count [1]?
The survivor count was 2 of 6 and 6 of 6.

What about the survivor count (dose: 300.0 mg/kg/injection, schedule: Q01DX009 (ip), vehicle: water) of the same compound?
The survivor count was 2 of 6.

And the survivor count [4]?
Its survivor count is 4 of 6.

What does the source list for COc1cccc(S(=O)c2ccc([N+](=O)[O-])c3no[n+]([O-])c23)c1 (stereo unspecified)?
survivor count (dose: 30.0 mg/kg/injection, schedule: Q01DX009 (ip), vehicle: saline with Tween-80): 4 of 7; survivor count (dose: 60.0 mg/kg/injection, schedule: Q01DX009 (ip), vehicle: saline with Tween-80): 1 of 7

Which survivor count (dose: 300.0 mg/kg/injection, schedule: Q01DX009 (ip), vehicle: Klucel (hydroxypropylcellulose) (HPC)) does the source give for Cc1noc(-c2ccc([N+](=O)[O-])o2)n1 here?
The survivor count was 3 of 6.

With CCCCN1CCCC(O)C1 (stereo unspecified) as the compound, how does the survivor count (dose: 200.0 mg/kg/injection, schedule: Q01DX009 (ip), vehicle: saline) read?
The survivor count was 4 of 6.

With CC1(C)CN(Cc2ccccc2)C(C)(C)CN1N as the compound, how does the survivor count [3] read?
Its survivor count is 3 of 6.

Which T/C [3] does the source give for Cc1cc(O)c(NCCCN(C)C)c2c(=O)c3ccccc3sc12 here?
The T/C was 126 % of control.

OC(CCCCl)CC(O)(C(F)(F)F)C(F)(F)F (stereo unspecified) was tested. Which survivor count [4] did it give?
Its survivor count is 4 of 6.

For N=C(N)SCc1ccccc1, which survivor count (dose: 100.0 mg/kg/injection, schedule: Q01DX001 (ip), vehicle: saline) is on record?
Its survivor count is 3 of 6.

And the survivor count (dose: 200.0 mg/kg/injection, schedule: Q01DX001 (ip), vehicle: saline)?
Its survivor count is 0 of 6.

With CCOP(=O)(N1CC1(C)C)N1CC1(C)C (stereo unspecified) as the compound, how does the T/C (dose: 100.0 mg/kg/injection, schedule: Q04DX003 (ip), vehicle: alcohol) read?
The T/C was 145 % of control.

What about the survivor count (dose: 200.0 mg/kg/injection, schedule: Q04DX003 (ip), vehicle: alcohol) of the same compound?
Its survivor count is 3 of 6.
